Like-named read-outs stand apart in the source and are kept apart here. Results are given in words; binding and its absence hold for the method and conditions named. Binding seen in cells or lysates may run through a third protein. A yes stands for co-enrichment or nearness to the bait. Other partners may have been found. For some of these results: No binding means not detected with the bait.
Experiments:
Test in all cases: affinity purification with mass spectrometry
[1] = target: recombinant human HER3 extracellular domain (human) (UniProt P21860)
[2] = target: HER2 extracellular domain (UniProt P04626)
[3] = target: recombinant human HER3 extracellular domain (human) (UniProt P21860); remark: listed apart in the source

Protein sequences, listed by entry. Tags and fused reporters are not part of them. Residues count along the entry.
UniProt P21860, residues 20-643: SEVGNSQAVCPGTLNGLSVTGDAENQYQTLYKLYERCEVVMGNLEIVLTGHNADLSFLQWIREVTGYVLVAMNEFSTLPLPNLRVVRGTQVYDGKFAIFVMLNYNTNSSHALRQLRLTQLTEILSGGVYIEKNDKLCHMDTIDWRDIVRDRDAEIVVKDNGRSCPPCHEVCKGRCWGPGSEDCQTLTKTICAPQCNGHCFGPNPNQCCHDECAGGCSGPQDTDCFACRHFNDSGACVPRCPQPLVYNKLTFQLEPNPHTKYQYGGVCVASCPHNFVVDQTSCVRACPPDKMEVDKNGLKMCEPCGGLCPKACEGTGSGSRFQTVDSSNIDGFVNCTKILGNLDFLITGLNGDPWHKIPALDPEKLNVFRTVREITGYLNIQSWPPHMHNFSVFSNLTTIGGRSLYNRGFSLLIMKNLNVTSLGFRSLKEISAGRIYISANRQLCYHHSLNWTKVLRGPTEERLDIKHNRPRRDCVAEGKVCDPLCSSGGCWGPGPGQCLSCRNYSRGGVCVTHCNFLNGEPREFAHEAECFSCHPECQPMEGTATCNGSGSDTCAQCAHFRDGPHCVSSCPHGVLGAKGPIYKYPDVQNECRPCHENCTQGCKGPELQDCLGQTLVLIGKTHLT
UniProt Q9NS15, residues 44-1303: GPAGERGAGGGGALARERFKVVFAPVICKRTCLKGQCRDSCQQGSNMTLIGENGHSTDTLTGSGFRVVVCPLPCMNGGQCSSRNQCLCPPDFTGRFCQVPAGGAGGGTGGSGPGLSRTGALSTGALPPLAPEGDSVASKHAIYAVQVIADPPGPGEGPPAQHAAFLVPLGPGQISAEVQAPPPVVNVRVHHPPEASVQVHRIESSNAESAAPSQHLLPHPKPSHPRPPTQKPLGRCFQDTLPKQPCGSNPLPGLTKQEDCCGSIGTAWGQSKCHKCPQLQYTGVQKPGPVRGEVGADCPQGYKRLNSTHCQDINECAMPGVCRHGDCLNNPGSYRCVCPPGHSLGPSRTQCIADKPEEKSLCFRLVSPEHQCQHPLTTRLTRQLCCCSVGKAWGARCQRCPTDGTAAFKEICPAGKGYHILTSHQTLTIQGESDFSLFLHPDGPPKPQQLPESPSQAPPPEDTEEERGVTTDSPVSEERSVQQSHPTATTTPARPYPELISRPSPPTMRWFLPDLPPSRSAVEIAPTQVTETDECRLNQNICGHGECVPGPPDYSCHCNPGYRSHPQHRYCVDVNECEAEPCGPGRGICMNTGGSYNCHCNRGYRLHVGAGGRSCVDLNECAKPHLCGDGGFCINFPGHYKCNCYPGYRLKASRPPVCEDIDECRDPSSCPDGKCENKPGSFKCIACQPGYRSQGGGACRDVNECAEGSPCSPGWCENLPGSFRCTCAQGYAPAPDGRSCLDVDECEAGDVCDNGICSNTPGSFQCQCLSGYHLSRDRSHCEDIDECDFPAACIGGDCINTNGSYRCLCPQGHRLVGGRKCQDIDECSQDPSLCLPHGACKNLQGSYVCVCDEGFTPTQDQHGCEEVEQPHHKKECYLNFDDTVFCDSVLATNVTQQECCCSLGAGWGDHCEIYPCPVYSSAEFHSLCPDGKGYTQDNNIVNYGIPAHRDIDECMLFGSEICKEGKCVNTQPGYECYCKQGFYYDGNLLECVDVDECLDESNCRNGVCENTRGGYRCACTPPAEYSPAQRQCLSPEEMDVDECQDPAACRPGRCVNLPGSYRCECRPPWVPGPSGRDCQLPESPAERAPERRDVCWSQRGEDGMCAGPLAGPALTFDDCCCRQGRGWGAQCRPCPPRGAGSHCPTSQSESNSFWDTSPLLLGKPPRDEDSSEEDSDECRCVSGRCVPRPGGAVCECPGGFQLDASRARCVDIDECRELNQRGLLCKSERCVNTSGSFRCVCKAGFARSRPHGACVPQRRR

Molecule | binding [1] | binding [2] | binding [3]
LTBP3 (in EC conditioned medium) (from UniProt Q9NS15 44-1303) | binds |  | 
recombinant human LRG1 (leucine-rich alpha-2-glycoprotein 1) (ligand, UniProt P02750 36-347, looked up) VTLSPKDCQVFRSDHGSSISCQPPAEIPGYLPADTVHLAVEFFNLTHLPANLLQGASKLQELHLSSNGLESLSPEFLRPVPQLRVLDLTRNALTGLPPGLFQASATLDTLVLKENQLEVLEVSWLHGLKALGHLDLSGNRLRKLPPGLLANFTLLRTLDLGENQLETLPPDLLRGPLQLERLHLEGNKLQVLGKDLLLPQPDLRYLFLNGNKLARVAAGAFQGLRQLDMLDLSNNSLASVPEGLWASLGQPNWDMRDGFDISGNPWICDQNLSDLYRWLQAQKDKMFSQNDTRCAGPEAVKGQTLLAVAKSQ |  | no binding | binds
NPR1 (in EC conditioned medium) (protein, UniProt P16066 33-473) GNLTVAVVLPLANTSYPWSWARVGPAVELALAQVKARPDLLPGWTVRTVLGSSENALGVCSDTAAPLAAVDLKWEHNPAVFLGPGCVYAAAPVGRFTAHWRVPLLTAGAPALGFGVKDEYALTTRAGPSYAKLGDFVAALHRRLGWERQALMLYAYRPGDEEHCFFLVEGLFMRVRDRLNITVDHLEFAEDDLSHYTRLLRTMPRKGRVIYICSSPDAFRTLMLLALEAGLCGEDYVFFHLDIFGQSLQGGQGPAPRRPWERGDGQDVSARQAFQAAKIITYKDPDNPEYLEFLKQLKHLAYEQFNFTMEDGLVNTIPASFHDGLLLYIQAVTETLAHGGTVTDGENITQRMWNRSFQGVTGYLKIDSSGDRETDFSLWDMDPENGAFRVVLNYNGTSQELVAVSGRKLNWPLGYPPPDIPKCGFDNEDPACNQDHLSTLE |  |  | binds

From paper doi:10.1101/2023.02.18.529070 (bioRxiv, 2023)
